From PMC11750091 come the findings set out here.

Chains of the proteins cited; added tags and fusions are not shown.
UniProt S7ZFE3: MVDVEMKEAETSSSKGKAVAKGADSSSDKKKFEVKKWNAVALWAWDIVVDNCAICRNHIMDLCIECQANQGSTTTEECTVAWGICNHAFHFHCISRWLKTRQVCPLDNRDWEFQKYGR

These are yes or no findings as the source states them, for the method shown. In cells and extracts the contact can be indirect. Here binding means that the protein was enriched with, or labelled near, the bait; the list need not be complete. Where a sequence is shown, tags or fusion partners need not be part of it.

For this assay, the target named is T1, PoAce1 fused with the TAP tag (HA-FLAG) at the C-terminus (Penicillium oxalicum) (UniProt S8AYJ0).
T1 sequence: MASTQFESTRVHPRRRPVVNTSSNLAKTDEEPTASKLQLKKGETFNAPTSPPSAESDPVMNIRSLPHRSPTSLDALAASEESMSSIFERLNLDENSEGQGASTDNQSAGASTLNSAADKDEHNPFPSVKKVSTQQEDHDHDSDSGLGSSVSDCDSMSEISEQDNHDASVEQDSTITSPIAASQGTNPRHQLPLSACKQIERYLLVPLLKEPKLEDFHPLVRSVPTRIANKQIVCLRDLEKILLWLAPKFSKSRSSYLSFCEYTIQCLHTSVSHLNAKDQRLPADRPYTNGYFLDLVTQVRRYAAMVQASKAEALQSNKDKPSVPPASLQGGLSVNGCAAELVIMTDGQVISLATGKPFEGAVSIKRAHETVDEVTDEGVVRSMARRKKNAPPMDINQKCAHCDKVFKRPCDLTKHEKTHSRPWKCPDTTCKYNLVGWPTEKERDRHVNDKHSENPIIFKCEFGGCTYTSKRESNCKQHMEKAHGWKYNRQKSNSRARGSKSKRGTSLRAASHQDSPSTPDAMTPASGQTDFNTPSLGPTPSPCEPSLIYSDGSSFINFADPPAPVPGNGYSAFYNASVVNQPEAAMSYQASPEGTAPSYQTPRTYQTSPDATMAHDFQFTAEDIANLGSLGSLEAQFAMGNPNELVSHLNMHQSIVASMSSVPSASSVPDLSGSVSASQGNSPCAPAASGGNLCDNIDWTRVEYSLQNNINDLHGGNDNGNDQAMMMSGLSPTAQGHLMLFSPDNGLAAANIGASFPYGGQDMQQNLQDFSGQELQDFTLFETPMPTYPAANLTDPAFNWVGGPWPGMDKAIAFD
The assay can be described thus: affinity purification with mass spectrometry; TAP-MS with PoAce1-HA-FLAG as bait from mycelia grown in VMMG; anti-FLAG M2 gel, 3xFLAG peptide elution, then anti-HA resin, 8 M urea elution; LC-MS/MS; WT 114-2 as control; biological triplicates.

PoRbx1 (from UniProt S7ZFE3 1-118): the binding entry is recorded as “binds”.

B1: PDE_00208 (uncharacterized protein) (protein, UniProt S7Z423 1-890)
chain: MELSRQEYPALLATLHPTQASTVLTDRIRLINKINSDIADFLQERRRVEEAYAQGLRKLASRPPVDNGVAMGIFQIPWQRIINATETLATSHETLATKIEEDVERPLREYSAKNAEMQSMPGVQNNLSSLAKNLEAAQKKVDKAKGKGTKGASSLSGAIAAAEEVNQQWESRAPFVYEQLQAADESRLNHLRDVLTQLETHELDQVERCREAAESCLNVLLNVQTADEIKTFAAKMAGKRAQFTPRLSSRQNSQADVNPAASIAPSTADSEAPTAPPAAAPLAPPSRIQDDAASQRSGRSETLAPAGTSSQTPPAPEPLPRHTPLGGLRRLGTVMNRRKSVVPPMGGSSDRKAEKKHRSPFSSFMRSDSSREAQIPESPPSTADRPGTSLTEESSLRNENISHDTDTVGAMAPTFASQPETSAPNENTPRSEEISMTNGTSQLQPSQPNVDSEGFTERPSSVDEITRAQREASAVEDSGVNLTIRDQPIFEDESQAKKAMDDMANTLRMRAPQPGIRRNAGTLRGRRDVRNTVFVPNAGADMTGSSAGSDQFGPSSPRHAASPTNTIDDHAMSDTTSVRSGHTAHSLGPSIHPELHEPGLNASIIETVSAWLFEGKVTKSSVVGELALANNPQPGHSVGKVLIRLDNFASLEKVAANPHFVHESNGEGIEDKRGEYEIQLGSISRSMPTVAFKYQVHIDPMNPSAYSPVIFKPAWNIEENQASAIIFYSLNPSFISASAGSITLKNVALTVALDVAPEDEVTKQPRESVAHAASAVMYPNSGAVFRRKTSSVIWKIPELEVKAPGSGGEDGKFLVRFTTTTPGPRKGNVEARFEFTNTETGSRLGISRAPAQASESEVDPFADSGKLPSPSPWESVPTTRKLVAGKYVSA
In the case of B1, the binding result was “binds”.

B2: PoMub1 (protein, UniProt S7ZK88 1-574)
chain: MSTFKLRCANSRIQECPNEGTYACASCKLVKYCSRKCQLGHWPAHKAECKDAVGQISWEPAWVADQREPHFFTSEDQPWGLRKRLWSRFPAFDILKLAENEGVTHSQDLQLLFSACGDLGNVVQTLASLPDSWNQGIELTINDADVDCIGRSVVMLLVAMCIDNVNDAVDSMIHIWYSAFIRKSDADMLQSRITPMIRRVCNTIKDQDPNKLYAKTWKRDTFSVKVILKQKSWMDLLGIFDRLGQIKHDAASNSRLKVTMAPHRQDFRDELMMKMPIAQRLAHQKYLLDGLVLPFGHPREEFSEANPFLYRPPCVWQLNDALNPIFGWPLEDVLETPGAASENDVYGKLLNYLRGRLRSCISRMSISPTAFVLYQMNPFRLLEVLDLGYFDRIDATGITDRDPDNPLSALSTYIPLLKDTKRNPCATLILFFETAVKSCISDGFITEEVEQNPRVIEILGRLLPPRMSSFVWEPALLIFSQAISLLISYDEVFIEYLNQRGFEAASKALGAGLKDSNTIISEFPYQVDPQPENQEPFNKLMMRLRESVDGKEVYLEWRREVQSEDRPSDSRGGG
Turning to B2, the binding entry is given as “binds”.

B3: PoCul1 (protein, UniProt S7Z946 1-764)
chain: MAPAMPQTPHKDDLTETWSFLEAGIDSVMLKLEEGVDMKTYMALYTAVHNFCTSQKAVANHQGLQAHRGAHLLGEELYKLLGEYLSRHLKAVLNESKGHAEEALLGFYIREWTRFTTAAKYVNHLFSYLNRHWVKREIDEGKKNVYDVYTLHLVKWKDDFFENVHDKVMDAVLNLIEKQRNGETIEQSQIKSIVDSFVSLGLDENDSKKSTLEVYRRYFQRPFIAATRTYYENESRQFVAENSVVEYMKKAETRLDEEKARVGLYLHPDVAKDLTDTCLDVLVTAHSTLLRDEFQVLLDNERQEDLARMYRLLSRIKDGLDPLRSTFENHVRRAGLAAVEKVASDSENFEPKLYVDALLQVHTRYQNLVDDAFNGDSEFVRSLDNACREFVNRNRICQSTSTKSPELLARYTDSLLKKGSKAAEESELEDMLVQIMTVFKYIEDKDVYQKFYSKMLAKRLVHVSSVSDDAETSMISKLKEACGFEYTNKLQRMFQDIQISKDLNASYKDWQDKVLDDDDRKRLVDAHYQILGTGFWPLQAPTSDFIAPIEINRTAERFSKFYFDKHNGRKLTWLWQLCKGEVKANYIKNAKVPYTFQVSTYQMGILLLFNEADTISYNDIQAATNLVPEILDPNLSIFLKARVLTISPEGSKPDPSTTFSLNYNFKNKKIKVNLNIQIKSEQKVEVDDTHKTIEEDRKLLLQSAIVRIMKSRKKMRHVQLVNEVIQQVKSRFPPQVPDIKKNIEALMEKDYIERLEGDEISYIA
On to B3, for which the binding entry was “binds”.

B4: PoPyc2 (protein, UniProt S7ZK70 1-1193)
chain: MAAPSRQPEEAIDDSEFIEDHEEHHQDSVHRRLRANSTIMHFQKILVANRGEIPIRIFRTAHELSLQTVAVFSHEDRYGMHRQKADEAYMIGKRGQYTPVGAYLAGDEIIKIAVEHGVHLIHPGYGFLSENAEFARNVEKAGIVFVGPTPDTIDALGDKVSARRLAIKCNVPVVPGTEGPVERYEEVKTFTDTYGFPIIIKAAFGGGGRGMRVVREQADLRDAFERATSEARSAFGNGTVFVERFLDKPKHIEVQLLGDNQGNVVHLFERDCSVQRRHQKVVEIAPAKDLPIEVRDKILADAVRLAKSVKYRNAGTAEFLVDQQNRYYFIEINPRIQVEHTITEEITGIDIVAAQIQIAAGATLEQLGLTQDRISTRGFAIQCRITTEDPSKGFSPDTGKIEVYRSAGGNGVRLDGGNGFAGAVITPHYDSMLVKCTCRGSTYEIARRKVLRALVEFRIRGVKTNIPFLASLLSHPTFIDGTCWTTFIDDTPELFALVGSQNRAQKLLAYLGDVAVNGSSIKGQMGEPKLKGEIIKPILTDASGAPIDVSVPCQKGWKQILDREGPAAFAKAVRANKGCLIMDTTWRDAHQSLLATRVRTIDMLNIAHETSHALSNAYSLECWGGATFDVAMRFLYEDPWDRLRKLRKAVPNIPFQMLLRGANGVAYSSLPDNAIYHFCKQAKKYGVDIFRVFDALNDVDQLEVGIKAVQQAGGVVEATICYSGDMLNPHKKYNLEYYLALAEKIVALGTHVLGIKDMAGVLKPQAARILISALRERYPDLPIHVHTHDSAGTGVASMIACAQAGADAVDAATDSLSGMTSQPSIGAILASLSGTEHDPHLDVAQVRALDSYWAQLRLLYSPFEAGLTGPDPEVYEHEIPGGQLTNLIFQASQLGLGQQWAETKKAYEAANDLLGDIVKVTPTSKVVGDLAQFMVSNKLSEQDVVDRAAELDFPGSVLEFLEGLMGQPFGGFPEPLRSRALRNRRKLDKRPGLYLDPLDLPGIKNQIREKFGSATECDVASYAMYPKVFEDYRKFVQKYGDLSVLPTRYFLARPEIGEEFHVELEKGKVLILKLLAIGPLSEQTGQREVFYEVNGEVRQVSVDDNKASVDNVARPKADVGDSSQVGAPMSGVVVEIRVHDGHECKKGDPIAVLSAMKMEMVISAPHSGKVSGLLVKEGDSVDGQDLICRITKA
In the case of B4, the binding entry is listed as “binds”.

B5: PoAsh1 (protein, UniProt S8ALA0 1-797)
chain: MSTHVRVKWQHEPDDTTSLDVPVQLLTPENSRSETSSNNEVTVAEEKVAPRRRSTRVARASLQATEAEEITTPYIEDTAASSSQAYVDSLVEAKRTRSSLRHSIAVMERSNDIAPPDDNTTMADYNPPLPNTPSSNTSQEQPVDEVASSTQQRTLRKRVAKVLAEVAKTPQSETAPQPNLQGPVRKSTRLSLVSKPLDLLERTSAVLGKRSRELSQKSKEPSRRSSLRPRVTAPKQDALASAPEPPAAKKRRVSESDLSKLRDIEAEVPSEEPTAPPPPPRYKPKKWLAHGLYTGQEPSDSPPKQRRSKNSSKTTTRPAQRRLLPMPMFGGARLIQSGRDYVLPFDVFSPLPPGQPKPDEWRKTNKNVFVGDAASEWKANKKLELSTCMCEEDTGCDENCQNRYMFYECDSGNCRLGPECGNRNFSELKHRTKAGGKYNIGVEVIKTSDRGYGVRSNRTFEPNQIIVEYTGEIITQFECERRMRTVYKNNECYYLMYFDQNMIIDATRGSIARFVNHSCEPNCRMEKWTVAGKPRMALFAGDRGIMTGEELSYDYNFDPYSLKNVQQCRCGSENCRGILGPRPKDKDQRAKLEEKAQAEKEAKKPLGKKRKLVDAESTASQKGKKRKVLNAKSIKASVKKVVSKATARGKAGTTKSAKATTTSSRSKTTKAVNLPKVKAASRVKATVEKGPRSKGKAAKTTTASSAKGSSVLKRPSLETKKKILARAKGTSRASPKKSPAKPKKGQTKSPRKPAGKKALAKSPAKSRVPTSKAKRTLAGSVKKVTKSVIRAVKGKSA
On to B5, for which the binding entry is recorded as “binds”.

B6: PDE_09763 (uncharacterized protein) (protein, UniProt S7ZWH9 1-267)
chain: MAVAGCRLQDAGCRLWVVGCGLRVAGREWRTAGHPLFLDVINQEHPMHRDPCRPVGPPARSARCVTVAQSRAPWCLALLRRVPPWPIEAALSSHGWIWRPGRISNTIEQQNSTRRASKAQWEMDDTCNCDIALSDLQYRSLGIQASKRPPTTCYPPLGESTSTEKWTVLSMFSGRSCLSRTEMWSTASMQTSHETLSYSATVDHHLEHRISLKLDWRTLSQLDNRGNGLCTLAVHTATVYPVVPKGSHFDWNNSSWEGSEFDWTYIY
As to B6, the binding result is “binds”.

B7: PoSkp1 (protein, UniProt S7ZF79 1-160)
chain: MSSQITLTSSDGVDITFDRAVAERSILIKNMLEDLGDCGEAIPIPNVNEAVLKKVIEWCEHHKNDPVTAADDDDNRRKTTDIDEWDQKFMQVDQEMLFEIILAANYLDIKALLDVGCKTVANMIKGKSPEEIRKTFNIQNDFTPEEEDQIRRENEWAEDR
On to B7, for which the binding entry is recorded as “binds”.
